{"source": "the supplement of paper PMC10077471", "note": "The full ranking holds about 1,900 compounds; the median of “excess over highest single agent (ExcessHSA) synergy score, 6x6 matrix” is about -83, and the lowest 2% start at about -370. This is one part of the list.", "data": [{"test_system": "NCI-H446", "assay": "excess over highest single agent (ExcessHSA) synergy score, 6x6 matrix; higher = less synergy (more negative = stronger synergy)", "settings": "72 h; CellTiter-Glo viability", "values": [{"smiles": "O=C1Nc2ccc(Cl)cc2[C@@](C#CC2CC2)(C(F)(F)F)O1", "note": "+ Cc1sc2c(c1C)C(c1ccc(Cl)cc1)=N[C@@H](CC(=O)OC(C)(C)C)c1nnc(C)n1-2 [NCGC00250412-19]", "excess over highest single agent": -86.5}, {"smiles": "c1ccc(-c2nn3c(c2-c2ccnc4cc(OCCN5CCOCC5)ccc24)CCC3)nc1", "note": "+ Cc1sc2c(c1C)C(c1ccc(Cl)cc1)=N[C@@H](CC(=O)OC(C)(C)C)c1nnc(C)n1-2 [NCGC00250412-19]", "excess over highest single agent": 179}, {"smiles": "O=C(O)Cn1nnc(-c2cc(N3CCC(Oc4cc(F)ccc4Br)CC3)no2)n1", "note": "+ Cc1sc2c(c1C)C(c1ccc(Cl)cc1)=N[C@@H](CC(=O)OC(C)(C)C)c1nnc(C)n1-2 [NCGC00250412-19]", "excess over highest single agent": -191}, {"smiles": "O=C(Nc1cccc(Br)c1)c1cccc(S(=O)(=O)N2CCCCCC2)c1", "note": "+ Cc1sc2c(c1C)C(c1ccc(Cl)cc1)=N[C@@H](CC(=O)OC(C)(C)C)c1nnc(C)n1-2 [NCGC00250412-19]", "excess over highest single agent": 20.4}, {"smiles": "Cc1cccc(C)c1OCC(=O)N[C@@H](Cc1ccccc1)[C@@H](O)C[C@H](Cc1ccccc1)NC(=O)[C@H](C(C)C)N1CCCNC1=O", "note": "+ Cc1sc2c(c1C)C(c1ccc(Cl)cc1)=N[C@@H](CC(=O)OC(C)(C)C)c1nnc(C)n1-2 [NCGC00250412-19]", "excess over highest single agent": -162}, {"smiles": "c1ccc(CNc2nc(N3CCOc4ccccc43)nc3c2CCCC3)cc1", "note": "+ Cc1sc2c(c1C)C(c1ccc(Cl)cc1)=N[C@@H](CC(=O)OC(C)(C)C)c1nnc(C)n1-2 [NCGC00250412-19]", "excess over highest single agent": -84}, {"smiles": "Clc1ccc(C(c2ccccc2Cl)C(Cl)Cl)cc1", "note": "(stereo not given) + Cc1sc2c(c1C)C(c1ccc(Cl)cc1)=N[C@@H](CC(=O)OC(C)(C)C)c1nnc(C)n1-2 [NCGC00250412-19]", "excess over highest single agent": -43.8}, {"smiles": "N#CC[C@H](C1CCCC1)n1cc(-c2ncnc3[nH]ccc23)cn1", "note": "+ Cc1sc2c(c1C)C(c1ccc(Cl)cc1)=N[C@@H](CC(=O)OC(C)(C)C)c1nnc(C)n1-2 [NCGC00250412-19]", "excess over highest single agent": 234}, {"smiles": "CN(C[C@@H]1COCCO1)S(=O)(=O)Nc1ccc2ccc3ncc(-c4cnn(C)c4)cc3c(=O)c2c1", "note": "+ Cc1sc2c(c1C)C(c1ccc(Cl)cc1)=N[C@@H](CC(=O)OC(C)(C)C)c1nnc(C)n1-2 [NCGC00250412-19]", "excess over highest single agent": -193}, {"smiles": "CCCc1nn(C)c2c(=O)[nH]c(-c3cc(S(=O)(=O)N4CCN(C)CC4)ccc3OCC)nc12", "note": "+ Cc1sc2c(c1C)C(c1ccc(Cl)cc1)=N[C@@H](CC(=O)OC(C)(C)C)c1nnc(C)n1-2 [NCGC00250412-19]", "excess over highest single agent": -189}, {"smiles": "CCC(C)(C)C(=O)O[C@H]1C[C@@H](C)C=C2C=C[C@H](C)[C@H](CC[C@@H]3C[C@@H](O)CC(=O)O3)[C@H]21", "note": "+ Cc1sc2c(c1C)C(c1ccc(Cl)cc1)=N[C@@H](CC(=O)OC(C)(C)C)c1nnc(C)n1-2 [NCGC00250412-19]", "excess over highest single agent": -62.2}, {"smiles": "CCCCS(=N)(=O)CCC(N)C(=O)O", "note": "(stereo not given) + Cc1sc2c(c1C)C(c1ccc(Cl)cc1)=N[C@@H](CC(=O)OC(C)(C)C)c1nnc(C)n1-2 [NCGC00250412-19]", "excess over highest single agent": -53.3}, {"smiles": "N=c1nc(N2CCCCC2)cc(N)n1O", "note": "+ Cc1sc2c(c1C)C(c1ccc(Cl)cc1)=N[C@@H](CC(=O)OC(C)(C)C)c1nnc(C)n1-2 [NCGC00250412-19]", "excess over highest single agent": -91.3}, {"smiles": "CC(C)c1cnn2c(NCc3ccccc3)cc(NCCCCCCN)nc12", "note": "+ Cc1sc2c(c1C)C(c1ccc(Cl)cc1)=N[C@@H](CC(=O)OC(C)(C)C)c1nnc(C)n1-2 [NCGC00250412-19]", "excess over highest single agent": -58.1}, {"smiles": "CCOC(=O)N1CCN(/[N+]([O-])=N/Oc2ccc([N+](=O)[O-])cc2C#N)CC1", "note": "+ Cc1sc2c(c1C)C(c1ccc(Cl)cc1)=N[C@@H](CC(=O)OC(C)(C)C)c1nnc(C)n1-2 [NCGC00250412-19]", "excess over highest single agent": -234}, {"smiles": "O=C(c1ccc(F)c(F)c1Nc1ccc(I)cc1F)N1CC(O)([C@@H]2CCCCN2)C1", "note": "+ Cc1sc2c(c1C)C(c1ccc(Cl)cc1)=N[C@@H](CC(=O)OC(C)(C)C)c1nnc(C)n1-2 [NCGC00250412-19]", "excess over highest single agent": -50.5}, {"smiles": "COc1cc2nc(N3CCCN(C)CC3)nc(NC3CCN(Cc4ccccc4)CC3)c2cc1OC", "note": "+ Cc1sc2c(c1C)C(c1ccc(Cl)cc1)=N[C@@H](CC(=O)OC(C)(C)C)c1nnc(C)n1-2 [NCGC00250412-19]", "excess over highest single agent": -95.7}, {"smiles": "O=S(=O)(c1cccc2cnccc12)N1CCCNCC1", "note": "+ Cc1sc2c(c1C)C(c1ccc(Cl)cc1)=N[C@@H](CC(=O)OC(C)(C)C)c1nnc(C)n1-2 [NCGC00250412-19]", "excess over highest single agent": 71.4}, {"smiles": "C[C@]12CC[C@H]3[C@@H](CCC4=CC(=O)CC[C@@]43C)[C@@H]1CC[C@@H]2O", "note": "+ Cc1sc2c(c1C)C(c1ccc(Cl)cc1)=N[C@@H](CC(=O)OC(C)(C)C)c1nnc(C)n1-2 [NCGC00250412-19]", "excess over highest single agent": -246}, {"smiles": "CCC1(C)CC(=O)NC1=O", "note": "(stereo not given) + Cc1sc2c(c1C)C(c1ccc(Cl)cc1)=N[C@@H](CC(=O)OC(C)(C)C)c1nnc(C)n1-2 [NCGC00250412-19]", "excess over highest single agent": -2.21}, {"smiles": "CC(C)(O)CC(=O)NCCn1ccc2ncnc(Nc3ccc(Oc4cccc(C(F)(F)F)c4)c(Cl)c3)c21", "note": "+ Cc1sc2c(c1C)C(c1ccc(Cl)cc1)=N[C@@H](CC(=O)OC(C)(C)C)c1nnc(C)n1-2 [NCGC00250412-19]", "excess over highest single agent": 16.5}, {"smiles": "CC(NCCc1ccc(O)cc1)C(O)c1ccc(O)cc1", "note": "(stereo not given) + Cc1sc2c(c1C)C(c1ccc(Cl)cc1)=N[C@@H](CC(=O)OC(C)(C)C)c1nnc(C)n1-2 [NCGC00250412-19]", "excess over highest single agent": -41.8}, {"smiles": "c1cc(OCCN2CCCCC2)cc(-c2n[nH]c3ccc(-c4nnc[nH]4)cc23)c1", "note": "+ Cc1sc2c(c1C)C(c1ccc(Cl)cc1)=N[C@@H](CC(=O)OC(C)(C)C)c1nnc(C)n1-2 [NCGC00250412-19]", "excess over highest single agent": -149}, {"smiles": "O=C(NC(Cc1cc(=O)[nH]c2ccccc12)C(=O)O)c1ccc(Cl)cc1", "note": "(stereo not given) + Cc1sc2c(c1C)C(c1ccc(Cl)cc1)=N[C@@H](CC(=O)OC(C)(C)C)c1nnc(C)n1-2 [NCGC00250412-19]", "excess over highest single agent": -189}, {"smiles": "CN(C)c1ccc(Nc2nc(N)n(C(=O)c3c(F)cccc3F)n2)cc1", "note": "+ Cc1sc2c(c1C)C(c1ccc(Cl)cc1)=N[C@@H](CC(=O)OC(C)(C)C)c1nnc(C)n1-2 [NCGC00250412-19]", "excess over highest single agent": -235}]}]}
